Assay results as given in patent US20080233097A1, “Phosphorylation Site Of Mitogen-Activated Protein Kinases, Modified Proteins And Applications” (UNIVERSIDAD AUTONOMA DE MADRID, priority 2005, published 2008).
Results are given in words; binding and its absence hold for the method and conditions named. In cells and extracts the contact can be indirect. Some results given as binding are weak or reduced against the parent protein; the word gives no strength.

Sequences of proteins named here, by UniProt entry; tags and fusion partners are left off. A change or cut given only in a name is not applied to a line headed by its entry.
UniProt P47811: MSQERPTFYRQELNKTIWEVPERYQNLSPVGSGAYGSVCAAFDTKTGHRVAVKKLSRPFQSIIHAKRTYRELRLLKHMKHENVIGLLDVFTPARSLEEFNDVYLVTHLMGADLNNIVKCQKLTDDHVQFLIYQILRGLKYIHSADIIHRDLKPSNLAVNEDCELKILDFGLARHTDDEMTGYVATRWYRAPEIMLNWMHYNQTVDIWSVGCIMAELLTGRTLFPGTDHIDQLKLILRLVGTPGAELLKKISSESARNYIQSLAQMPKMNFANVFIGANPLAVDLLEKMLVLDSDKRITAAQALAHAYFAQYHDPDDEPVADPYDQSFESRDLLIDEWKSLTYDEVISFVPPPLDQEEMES
UniProt P21146: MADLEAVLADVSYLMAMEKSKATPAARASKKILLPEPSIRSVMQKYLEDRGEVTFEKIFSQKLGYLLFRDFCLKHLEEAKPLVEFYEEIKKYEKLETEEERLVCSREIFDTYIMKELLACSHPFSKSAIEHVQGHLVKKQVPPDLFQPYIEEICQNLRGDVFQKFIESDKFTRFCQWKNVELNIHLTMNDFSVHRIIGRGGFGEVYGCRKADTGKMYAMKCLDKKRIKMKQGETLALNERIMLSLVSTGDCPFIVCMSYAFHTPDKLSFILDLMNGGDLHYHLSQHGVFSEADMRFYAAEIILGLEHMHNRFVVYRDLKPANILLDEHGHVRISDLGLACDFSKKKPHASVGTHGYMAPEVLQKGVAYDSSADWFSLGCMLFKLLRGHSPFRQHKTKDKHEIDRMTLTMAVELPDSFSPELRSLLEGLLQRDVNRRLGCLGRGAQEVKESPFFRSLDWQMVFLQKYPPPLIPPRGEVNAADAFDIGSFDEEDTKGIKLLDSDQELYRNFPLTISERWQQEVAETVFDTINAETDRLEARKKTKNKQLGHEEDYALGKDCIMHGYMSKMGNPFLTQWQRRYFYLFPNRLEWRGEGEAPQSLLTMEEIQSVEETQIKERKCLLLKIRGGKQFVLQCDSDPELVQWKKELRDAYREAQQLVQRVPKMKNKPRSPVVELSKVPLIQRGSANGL
UniProt P25098: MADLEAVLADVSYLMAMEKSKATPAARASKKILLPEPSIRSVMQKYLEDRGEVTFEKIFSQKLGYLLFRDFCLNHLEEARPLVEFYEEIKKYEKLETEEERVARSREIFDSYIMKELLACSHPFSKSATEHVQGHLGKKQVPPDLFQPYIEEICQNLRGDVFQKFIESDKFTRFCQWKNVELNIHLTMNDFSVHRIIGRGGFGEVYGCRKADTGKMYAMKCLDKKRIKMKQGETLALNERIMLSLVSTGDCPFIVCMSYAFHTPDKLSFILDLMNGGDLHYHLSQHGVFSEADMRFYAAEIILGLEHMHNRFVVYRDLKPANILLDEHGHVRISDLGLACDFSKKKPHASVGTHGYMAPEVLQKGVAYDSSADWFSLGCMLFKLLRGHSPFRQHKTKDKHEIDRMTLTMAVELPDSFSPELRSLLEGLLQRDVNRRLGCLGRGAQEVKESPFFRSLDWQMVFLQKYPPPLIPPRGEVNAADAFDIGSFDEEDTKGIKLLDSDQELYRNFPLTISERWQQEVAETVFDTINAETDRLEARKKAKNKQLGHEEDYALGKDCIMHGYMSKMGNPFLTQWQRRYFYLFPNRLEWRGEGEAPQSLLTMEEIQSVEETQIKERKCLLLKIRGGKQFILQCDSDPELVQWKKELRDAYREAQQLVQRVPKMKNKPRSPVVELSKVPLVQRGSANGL

Key:
[1] = molecular target: Flag-p38α (mouse, from pCDNA3-Flag-p38α, expressed in HEK 293 cells) (mouse) (UniProt P47811); assay: co-immunoprecipitation with M2 anti-Flag agarose from transfected HEK 293 cells, Western blot with anti-PF2
[2] = molecular target: Flag-p38α (mouse, from pCDNA3-Flag-p38α, expressed in HEK 293 cells) (mouse) (UniProt P47811); assay: co-immunoprecipitation of endogenous GRK2 with Flag-p38α from HEK 293 cells
[3] = molecular target: Flag-p38α (mouse, from pCDNA3-Flag-p38α, expressed in HEK 293 cells) (mouse) (UniProt P47811); assay: co-immunoprecipitation of endogenous GRK2 with Flag-p38α from HEK 293 cells transfected with β2-AR and Flag-p38α only
[4] = molecular target: Flag-p38α (mouse, from pCDNA3-Flag-p38α, expressed in HEK 293 cells) (mouse) (UniProt P47811); assay: reciprocal co-immunoprecipitation with anti-PF2 (anti-GRK2), Western blot with anti-p38
[5] = molecular target: Flag-p38α (mouse, from pCDNA3-Flag-p38α, expressed in HEK 293 cells) (mouse) (UniProt P47811); assay: reciprocal co-immunoprecipitation with anti-GRK2 antibodies, p38 detected in the immunoprecipitates
[6] = molecular target: Flag-p38α (mouse, from pCDNA3-Flag-p38α, expressed in HEK 293 cells) (mouse) (UniProt P47811); assay: co-immunoprecipitation from transfected HEK293 lysates with M2 anti-Flag agarose, Western blot with anti-PF2

GRK2-K220R (catalytically inactive mutant of bovine GRK2, from pCDNA3-GRK2-K220R) (from UniProt P21146 1-689) (enzyme)
binding [1]: binds

endogenous GRK2 of HEK 293 cells (from UniProt P25098 1-689) (enzyme)
binding [2]: binds
binding [3]: binds

GRK2 (bovine, overexpressed from pCDNA3-GRK2 in HEK 293 cells) (from UniProt P21146 1-689) (enzyme)
binding [4]: binds
binding [5]: binds
binding [6]: binds
